Results on three molecules are retold here after US20230151083A1.

Substitutions are numbered along the chain they refer to. No constants are given. Whether binding was seen depends on the method and setting. For part of these data: Binding calls can cover weak binding; strength is not graded here.

B1: PT3 hIgG1 (antibody, V domains shown)
VH: EVKLVESGGDLVKPGGSLKLSCAASGFTFSSYAMSWVRQNPEKRLEWVASISKGGNTYYPNSVKGRFTISRDNARNILYLQMSSLRSEDTALYYCARGWGDYGWFAYWGQVTLVTVSA
VL: DIKMTQSPSSMYASLGERVTITCKASQDINRYLNWFQQKPGKSPKTLIYRANRLLDGVPSRFSGSGSGQDYSLTISSLDYEDMGIYYCLQYDEFPLTFGDGTKLELK
B2: PT1B847 (antibody, human IgG1, kappa, V domains shown)
VH: EVQLVESGGGLVKPGGSLRLSCAASGFTFSSYAMSWVRQAPGKRLEWVASISKGGNTYYPNSVKGRFTISRDNAKNSLYLQMNSLRAEDTAVYYCARGWGDYGWFAYWGQVTLVTVSS
VL: DIQMTQSPSSLSASVGDRVTITCKASQDINRYLNWFQQKPGKAPKTLIYRANRLLDGVPSRFSGSGSGTDFTLTISSLQPEDFATYYCQQYDEFPLTFGQGTKLEIKR
B3: PT1B856 (antibody, human IgG1, kappa, V domains shown)
VH: B2 VH with A40N, R44G, N61D
VL: B2 VL

The target in one assay is tau from dog brain (dog). Put plainly: Western blot on brain homogenate, antibody 1 µg/mL. In general terms: A western blot detects proteins with antibodies after separation by electrophoresis.
B1: the binding result is reported as “binds”.

As for B2, the binding entry is reported as “binds”.

For B3, the binding entry was “binds”.

The next assay has as its target tau from minipig brain (minipig). Put plainly: Western blot on brain homogenate, antibody 1 µg/mL.
As to B1, the binding entry is given as “binds”.

As for B2, the binding result is “binds”.

For the molecule B3, the binding entry was “binds”.

The target in a further assay is tau from marmoset brain (marmoset). Put plainly: Western blot on brain homogenate, antibody 1 µg/mL.
As to B1, the binding entry was “binds”.

Take B2: the binding entry is listed as “binds”.

Take B3: the binding result is “binds”.

In another assay the target is tau from Cynomolgous monkey brain (Cynomolgous monkey). Put plainly: Western blot on brain homogenate.
B1: the binding result is listed as “no binding (tested: 1 µg/mL)”.

As for B2, the binding result is given as “no binding (tested: 1 µg/mL)”.

In the case of B3, the binding result was “no binding (tested: 1 µg/mL)”.
